In the supplement of paper PMC10849652:
The list shows a part of the results.

Protein sequences, listed by entry. Tags and fused reporters are not part of them. Lines headed by an entry give the natural chain unless they say otherwise; changes in a name come on top.
UniProt Q9UKG1: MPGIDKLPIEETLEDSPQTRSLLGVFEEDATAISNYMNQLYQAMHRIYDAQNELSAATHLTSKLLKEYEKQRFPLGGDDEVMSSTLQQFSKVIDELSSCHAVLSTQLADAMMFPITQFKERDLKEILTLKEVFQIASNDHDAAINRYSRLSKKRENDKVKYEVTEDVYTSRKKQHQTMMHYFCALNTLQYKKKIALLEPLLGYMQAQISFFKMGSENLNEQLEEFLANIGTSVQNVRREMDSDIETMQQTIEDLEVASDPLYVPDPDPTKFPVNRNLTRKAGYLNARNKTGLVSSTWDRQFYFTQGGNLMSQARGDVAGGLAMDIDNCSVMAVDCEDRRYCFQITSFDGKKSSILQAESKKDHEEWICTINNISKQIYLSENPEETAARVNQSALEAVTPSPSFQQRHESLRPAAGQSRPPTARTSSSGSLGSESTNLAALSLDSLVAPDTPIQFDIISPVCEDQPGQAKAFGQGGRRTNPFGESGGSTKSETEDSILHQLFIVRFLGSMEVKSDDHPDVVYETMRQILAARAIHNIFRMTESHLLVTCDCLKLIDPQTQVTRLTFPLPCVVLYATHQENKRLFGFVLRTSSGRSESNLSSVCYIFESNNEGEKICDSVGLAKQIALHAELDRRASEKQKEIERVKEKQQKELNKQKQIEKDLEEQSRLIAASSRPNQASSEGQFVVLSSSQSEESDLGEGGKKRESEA
UniProt Q13017, whole entry, looked up: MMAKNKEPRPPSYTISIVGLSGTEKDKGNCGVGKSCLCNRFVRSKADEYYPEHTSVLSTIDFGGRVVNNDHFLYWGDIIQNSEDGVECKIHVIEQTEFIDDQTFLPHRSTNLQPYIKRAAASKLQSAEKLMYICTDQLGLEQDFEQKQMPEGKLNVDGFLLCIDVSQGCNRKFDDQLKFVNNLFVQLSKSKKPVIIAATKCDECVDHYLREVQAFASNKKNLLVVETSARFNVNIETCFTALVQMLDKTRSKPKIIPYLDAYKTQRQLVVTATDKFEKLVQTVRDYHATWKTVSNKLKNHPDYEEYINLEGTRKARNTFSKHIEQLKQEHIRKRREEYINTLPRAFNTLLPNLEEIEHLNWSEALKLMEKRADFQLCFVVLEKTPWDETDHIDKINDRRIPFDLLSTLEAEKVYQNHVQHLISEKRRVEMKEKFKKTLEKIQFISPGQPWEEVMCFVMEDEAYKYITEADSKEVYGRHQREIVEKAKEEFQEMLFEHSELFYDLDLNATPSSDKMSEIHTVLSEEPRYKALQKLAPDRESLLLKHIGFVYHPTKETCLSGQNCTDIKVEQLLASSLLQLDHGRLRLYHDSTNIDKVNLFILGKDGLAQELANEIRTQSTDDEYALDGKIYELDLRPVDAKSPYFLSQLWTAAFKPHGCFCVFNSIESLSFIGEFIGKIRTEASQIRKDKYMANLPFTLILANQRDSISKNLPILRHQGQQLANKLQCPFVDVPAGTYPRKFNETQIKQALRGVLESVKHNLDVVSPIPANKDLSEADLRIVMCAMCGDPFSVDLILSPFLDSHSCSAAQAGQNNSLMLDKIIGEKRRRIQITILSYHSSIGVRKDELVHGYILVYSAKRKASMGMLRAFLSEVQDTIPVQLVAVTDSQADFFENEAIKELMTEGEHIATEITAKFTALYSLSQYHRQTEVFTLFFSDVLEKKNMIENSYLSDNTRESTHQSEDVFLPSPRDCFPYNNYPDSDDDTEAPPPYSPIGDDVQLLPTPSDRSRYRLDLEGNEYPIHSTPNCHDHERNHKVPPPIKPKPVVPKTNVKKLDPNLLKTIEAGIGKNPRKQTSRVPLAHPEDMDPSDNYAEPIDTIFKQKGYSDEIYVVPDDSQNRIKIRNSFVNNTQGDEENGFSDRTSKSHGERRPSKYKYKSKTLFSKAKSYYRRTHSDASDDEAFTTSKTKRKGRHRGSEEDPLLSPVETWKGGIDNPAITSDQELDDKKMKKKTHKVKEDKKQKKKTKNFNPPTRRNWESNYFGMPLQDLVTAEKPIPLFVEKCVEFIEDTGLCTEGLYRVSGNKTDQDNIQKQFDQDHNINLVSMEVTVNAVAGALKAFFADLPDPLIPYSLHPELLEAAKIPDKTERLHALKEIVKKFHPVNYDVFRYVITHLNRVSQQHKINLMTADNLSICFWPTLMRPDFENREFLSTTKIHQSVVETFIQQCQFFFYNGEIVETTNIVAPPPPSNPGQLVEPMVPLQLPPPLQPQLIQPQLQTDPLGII
UniProt Q9UH17: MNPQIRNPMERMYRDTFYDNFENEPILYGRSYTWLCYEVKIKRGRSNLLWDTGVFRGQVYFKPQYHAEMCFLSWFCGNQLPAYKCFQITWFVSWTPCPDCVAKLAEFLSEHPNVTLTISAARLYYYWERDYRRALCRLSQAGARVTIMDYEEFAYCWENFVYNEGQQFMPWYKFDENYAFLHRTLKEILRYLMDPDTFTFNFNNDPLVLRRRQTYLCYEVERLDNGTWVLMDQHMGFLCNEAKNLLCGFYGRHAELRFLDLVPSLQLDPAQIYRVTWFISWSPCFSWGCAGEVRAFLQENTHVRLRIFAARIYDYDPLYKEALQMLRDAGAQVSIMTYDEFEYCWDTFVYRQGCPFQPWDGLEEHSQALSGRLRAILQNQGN
UniProt Q9NP61: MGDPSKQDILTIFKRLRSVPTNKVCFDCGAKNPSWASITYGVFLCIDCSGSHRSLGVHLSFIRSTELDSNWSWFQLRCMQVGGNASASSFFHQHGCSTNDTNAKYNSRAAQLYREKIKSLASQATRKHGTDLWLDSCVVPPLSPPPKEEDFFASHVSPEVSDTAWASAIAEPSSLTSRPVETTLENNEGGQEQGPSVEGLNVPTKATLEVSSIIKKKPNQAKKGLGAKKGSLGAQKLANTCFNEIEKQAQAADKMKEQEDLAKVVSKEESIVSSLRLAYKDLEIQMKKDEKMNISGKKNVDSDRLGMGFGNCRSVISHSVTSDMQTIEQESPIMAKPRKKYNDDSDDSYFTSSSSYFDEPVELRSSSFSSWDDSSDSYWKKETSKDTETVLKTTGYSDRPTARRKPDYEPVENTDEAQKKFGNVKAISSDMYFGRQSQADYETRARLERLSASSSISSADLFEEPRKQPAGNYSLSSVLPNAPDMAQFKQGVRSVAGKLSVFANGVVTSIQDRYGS
UniProt Q02410: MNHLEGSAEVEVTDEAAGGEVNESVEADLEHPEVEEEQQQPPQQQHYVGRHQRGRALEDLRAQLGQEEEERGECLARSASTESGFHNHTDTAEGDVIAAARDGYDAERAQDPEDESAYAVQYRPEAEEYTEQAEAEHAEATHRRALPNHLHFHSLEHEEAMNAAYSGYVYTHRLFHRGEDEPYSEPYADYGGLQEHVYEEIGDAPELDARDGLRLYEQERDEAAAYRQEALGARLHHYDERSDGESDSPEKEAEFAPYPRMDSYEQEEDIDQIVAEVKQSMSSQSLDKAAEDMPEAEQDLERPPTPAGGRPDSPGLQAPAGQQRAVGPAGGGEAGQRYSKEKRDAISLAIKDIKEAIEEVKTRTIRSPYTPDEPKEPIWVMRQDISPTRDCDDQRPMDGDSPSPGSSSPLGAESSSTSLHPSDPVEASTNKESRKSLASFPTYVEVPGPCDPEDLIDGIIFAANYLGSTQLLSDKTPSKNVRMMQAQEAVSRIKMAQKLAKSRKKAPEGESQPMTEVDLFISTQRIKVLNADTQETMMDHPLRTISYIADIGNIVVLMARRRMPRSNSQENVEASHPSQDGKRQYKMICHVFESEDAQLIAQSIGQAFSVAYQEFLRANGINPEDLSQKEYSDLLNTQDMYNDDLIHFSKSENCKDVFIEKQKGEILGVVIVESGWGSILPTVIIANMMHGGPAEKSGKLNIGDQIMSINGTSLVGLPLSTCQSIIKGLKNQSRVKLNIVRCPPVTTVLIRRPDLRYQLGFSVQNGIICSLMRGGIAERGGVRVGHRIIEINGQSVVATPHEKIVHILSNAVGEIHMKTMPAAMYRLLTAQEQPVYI
UniProt Q14CB8: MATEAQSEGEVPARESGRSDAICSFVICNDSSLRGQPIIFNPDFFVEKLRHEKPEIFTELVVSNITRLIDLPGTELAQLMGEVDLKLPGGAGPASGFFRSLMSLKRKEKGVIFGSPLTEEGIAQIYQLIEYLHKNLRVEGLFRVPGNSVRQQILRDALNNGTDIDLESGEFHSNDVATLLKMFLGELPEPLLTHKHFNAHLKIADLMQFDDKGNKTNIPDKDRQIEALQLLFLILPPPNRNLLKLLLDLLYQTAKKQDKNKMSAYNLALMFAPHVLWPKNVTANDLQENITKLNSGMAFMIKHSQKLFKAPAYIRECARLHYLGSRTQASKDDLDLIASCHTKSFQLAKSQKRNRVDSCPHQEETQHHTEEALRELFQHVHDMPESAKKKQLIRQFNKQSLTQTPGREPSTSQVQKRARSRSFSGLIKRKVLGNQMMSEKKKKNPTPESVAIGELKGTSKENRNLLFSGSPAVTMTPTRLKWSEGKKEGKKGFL
UniProt Q96BI3, whole entry, looked up: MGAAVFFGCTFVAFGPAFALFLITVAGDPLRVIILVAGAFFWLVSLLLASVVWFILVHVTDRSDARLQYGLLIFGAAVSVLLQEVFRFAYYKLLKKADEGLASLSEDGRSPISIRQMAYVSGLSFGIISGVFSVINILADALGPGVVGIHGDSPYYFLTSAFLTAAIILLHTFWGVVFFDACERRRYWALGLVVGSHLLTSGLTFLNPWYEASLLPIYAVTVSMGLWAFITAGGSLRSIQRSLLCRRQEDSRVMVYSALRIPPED
UniProt Q96BM9: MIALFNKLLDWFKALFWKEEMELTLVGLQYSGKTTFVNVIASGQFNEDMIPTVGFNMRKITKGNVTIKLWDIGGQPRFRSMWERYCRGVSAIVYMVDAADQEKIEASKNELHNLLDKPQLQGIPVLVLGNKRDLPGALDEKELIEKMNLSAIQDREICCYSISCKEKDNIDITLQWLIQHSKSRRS
UniProt Q9Y689: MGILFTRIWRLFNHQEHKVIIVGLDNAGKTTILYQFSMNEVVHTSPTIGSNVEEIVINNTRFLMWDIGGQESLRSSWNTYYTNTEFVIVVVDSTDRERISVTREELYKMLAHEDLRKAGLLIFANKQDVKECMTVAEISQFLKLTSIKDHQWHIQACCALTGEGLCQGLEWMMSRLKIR
UniProt Q8TER5, whole entry, looked up: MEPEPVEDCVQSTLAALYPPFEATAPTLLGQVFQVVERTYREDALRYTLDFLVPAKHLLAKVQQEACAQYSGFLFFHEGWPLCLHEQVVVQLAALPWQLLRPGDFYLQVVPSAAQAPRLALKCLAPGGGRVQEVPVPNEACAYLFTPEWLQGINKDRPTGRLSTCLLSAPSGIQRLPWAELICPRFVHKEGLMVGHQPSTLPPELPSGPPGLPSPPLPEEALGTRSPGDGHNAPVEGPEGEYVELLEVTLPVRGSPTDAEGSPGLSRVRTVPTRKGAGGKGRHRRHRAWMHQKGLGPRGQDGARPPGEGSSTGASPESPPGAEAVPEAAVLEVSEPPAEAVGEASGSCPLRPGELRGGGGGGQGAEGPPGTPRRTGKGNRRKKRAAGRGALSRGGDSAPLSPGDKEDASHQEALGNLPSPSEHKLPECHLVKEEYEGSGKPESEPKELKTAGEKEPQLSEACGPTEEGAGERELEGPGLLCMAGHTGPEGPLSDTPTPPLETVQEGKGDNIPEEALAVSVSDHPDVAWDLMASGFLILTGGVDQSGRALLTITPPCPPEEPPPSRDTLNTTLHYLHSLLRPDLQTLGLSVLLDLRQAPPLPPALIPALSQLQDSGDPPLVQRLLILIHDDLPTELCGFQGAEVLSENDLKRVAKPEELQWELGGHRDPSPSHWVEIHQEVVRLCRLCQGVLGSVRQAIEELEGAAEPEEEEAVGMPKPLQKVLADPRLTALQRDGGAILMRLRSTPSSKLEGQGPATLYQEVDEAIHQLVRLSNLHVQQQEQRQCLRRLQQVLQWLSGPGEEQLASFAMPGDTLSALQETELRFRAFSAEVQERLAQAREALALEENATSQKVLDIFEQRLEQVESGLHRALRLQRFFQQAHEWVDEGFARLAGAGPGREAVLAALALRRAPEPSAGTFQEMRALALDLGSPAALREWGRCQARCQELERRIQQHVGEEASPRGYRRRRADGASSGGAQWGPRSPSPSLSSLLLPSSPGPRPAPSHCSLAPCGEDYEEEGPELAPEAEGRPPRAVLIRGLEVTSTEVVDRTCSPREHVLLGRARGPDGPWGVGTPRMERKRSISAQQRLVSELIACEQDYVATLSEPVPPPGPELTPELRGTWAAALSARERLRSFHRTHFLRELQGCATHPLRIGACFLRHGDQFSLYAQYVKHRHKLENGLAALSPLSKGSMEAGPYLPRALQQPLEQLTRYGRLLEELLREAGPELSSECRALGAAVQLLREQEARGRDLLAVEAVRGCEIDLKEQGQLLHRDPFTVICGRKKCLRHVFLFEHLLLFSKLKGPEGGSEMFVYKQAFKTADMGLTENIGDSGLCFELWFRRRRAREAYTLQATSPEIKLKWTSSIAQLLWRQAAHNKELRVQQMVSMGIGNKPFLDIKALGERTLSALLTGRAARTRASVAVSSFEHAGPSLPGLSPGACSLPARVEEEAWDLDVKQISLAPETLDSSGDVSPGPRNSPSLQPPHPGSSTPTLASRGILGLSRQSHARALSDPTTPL

Experiments:
Assay in all cases: log2 fold change, soluble protein after heating vs DMSO (PISA); higher = thermal stabilisation; K562 lysate, 10 uM; active = over 0.2 and 3.5 SD of the protein, either way, in both replicates (recomputed)
nilotinib = compound: Cc1cn(-c2cc(NC(=O)c3ccc(C)c(Nc4nccc(-c5cccnc5)n4)c3)cc(C(F)(F)F)c2)cn1 [nilotinib]
How it was run: (§1)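 Thermal stability, expressed as log-two fold change relative to solvent controls, is given from duplicates. Crude K562 extract in PBS pH 7.4 with 1 mM MgCl2, at 1 mg/mL protein, was treated with 10 μM compound for 30 min and heated in aliquots for 3 min across 48°C-58°C. After pooling, adjustment to 0.5% NP-40 at 4°C and centrifugation at 21,000xg for 90 min, supernatant protein was measured by TMTpro 16plex LC-MS/MS with channel sums equalised.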

[1] = compound: Cc1nc(Nc2n[nH]c3c2CN(C(=O)N[C@H](CN(C)C)c2ccccc2)C3(C)C)c2sccc2n1
How it was run: as §1

dasatinib = compound: Cc1nc(Nc2ncc(C(=O)Nc3c(C)cccc3Cl)s2)cc(N2CCN(CCO)CC2)n1 [dasatinib]
How it was run: as §1

[2] = compound: Cc1ncc(-c2ccnc(Nc3ccc(S(C)(=O)=O)cc3)n2)n1C(C)C
How it was run: as §1

[3] = compound: Cn1cc(-c2ccc3c(c2)CCN3C(=O)Cc2cccc(C(F)(F)F)c2)c2c(N)ncnc21
How it was run: as §1

quisinostat = compound: Cn1cc(CNCC2CCN(c3ncc(C(=O)NO)cn3)CC2)c2ccccc21 [quisinostat]
How it was run: as §1

tipifarnib = compound: Cn1cncc1[C@@](N)(c1ccc(Cl)cc1)c1ccc2c(c1)c(-c1cccc(Cl)c1)cc(=O)n2C [tipifarnib]
How it was run: as §1

[4] = compound: NC(=O)Nc1cc(-c2cccc(F)c2)sc1C(=O)N[C@H]1CCCNC1
How it was run: as §1

[5] = compound: NC1(c2ccc(-c3nc4ccn5c(=O)[nH]nc5c4cc3-c3ccccc3)cc2)CCC1
How it was run: as §1

vorinostat = compound: O=C(CCCCCCC(=O)Nc1ccccc1)NO [vorinostat]
How it was run: as §1

silmitasertib = compound: O=C(O)c1ccc2c(c1)nc(Nc1cccc(Cl)c1)c1ccncc12 [silmitasertib]
How it was run: as §1

[6] = compound: O=C1NC(=O)C(c2cnc3ccccn23)=C1c1cn2c3c(cc(F)cc13)CN(C(=O)N1CCCCC1)CC2
How it was run: as §1

entospletinib = compound: c1cn2cc(-c3ccc4cn[nH]c4c3)nc(Nc3ccc(N4CCOCC4)cc3)c2n1 [entospletinib]
How it was run: as §1

[7] = compound: NC(=O)c1cnc(N[C@@H]2CCCC[C@@H]2N)nc1Nc1cccc(-n2nccn2)c1
How it was run: as §1

[8] = compound: NCC(=O)Nc1ccc(-n2nc(C(F)(F)F)cc2-c2ccc3c(ccc4ccccc43)c2)cc1
How it was run: as §1

Measured: log2 fold change

APP (UniProt P05067)
inactive: nilotinib -0.078 | [1] 0.062 | dasatinib 0.032 | [2] -0.018 | [3] 0.063 | quisinostat 0.06 | tipifarnib 0.137 | [4] 0.016 | [5] -0.051 | vorinostat 0.086 | silmitasertib 0.086 | [6] -0.067 | entospletinib 0.209

APPL1 (UniProt Q9UKG1)
inactive: nilotinib -0.008 | [1] 0.05 | dasatinib -0.01 | [2] -0.015 | [3] 0.031 | quisinostat -0.049 | tipifarnib 0.036 | [4] 0.026 | [7] -0.014 | [5] 0.015 | [8] 0.031 | vorinostat 0.016 | silmitasertib 0.003 | [6] 0.015 | entospletinib 0.012

ARHGAP5 (UniProt Q13017)
inactive: nilotinib 0.01 | [1] -0.056 | dasatinib -0.002 | [2] 0.026 | [3] 0.021 | quisinostat -0.035 | tipifarnib 0.015 | [4] -0.004 | [7] 0.025 | [5] 0.029 | [8] -0.04 | vorinostat -0.005 | silmitasertib 0.031 | [6] 0.052 | entospletinib 0.032

AP5B1 (UniProt Q2VPB7)
inactive: nilotinib 0.001 | [1] -0.033 | dasatinib 0.065 | [2] -0.053 | [3] -0.072 | quisinostat -0.027 | tipifarnib -0.087 | [7] -0.023 | [5] -0.036 | vorinostat -0.062 | silmitasertib 0.044 | [6] -0.094 | entospletinib 0.022
active: [4] 0.324

API5 isoform 1 (UniProt Q9BZZ5)
inactive: nilotinib -0.138 | [1] 0.147 | [2] 0.019 | quisinostat -0.044 | tipifarnib -0.093 | [4] 0.032 | [6] -0.124

APOBEC3B (UniProt Q9UH17)
inactive: nilotinib 0.191 | [1] 0.056 | dasatinib 0.229 | [2] -0.293 | [3] -0.076 | quisinostat 0.046 | tipifarnib 0.162 | [4] -0.062 | [5] 0 | [8] -0.079 | vorinostat -0.006 | silmitasertib -0.207 | [6] 0.15 | entospletinib 0.042

ARFIP1 isoform 2 (UniProt P53367)
inactive: nilotinib -0.11 | [1] 0.089 | dasatinib -0.179 | [2] 0.017 | [3] -0.133 | tipifarnib 0.175 | [7] 0.065 | [8] -0.086 | entospletinib -0.028

APOBEC3G (UniProt Q9HC16)
inactive: nilotinib -0.08 | [1] -0.043 | dasatinib 0.061 | [2] 0.007 | [3] 0.173 | quisinostat -0.008 | tipifarnib 0 | [4] 0.021 | [7] 0.03 | [5] -0.051 | [8] -0.045 | vorinostat 0.091 | silmitasertib -0.035 | [6] 0.014 | entospletinib 0.008

ARFGAP3 (UniProt Q9NP61)
inactive: nilotinib 0.032 | [1] -0.015 | dasatinib 0.03 | [2] -0.007 | [3] -0.022 | quisinostat 0.012 | tipifarnib -0.045 | [4] -0.032 | [7] -0.03 | [5] 0.028 | [8] 0.022 | vorinostat -0.091 | silmitasertib -0.046 | [6] -0.018 | entospletinib 0.019

ARF3 (UniProt P61204)
inactive: nilotinib -0.006 | [1] -0.006 | dasatinib 0.063 | [2] -0.022 | [3] -0.029 | quisinostat -0.024 | tipifarnib -0.038 | [4] -0.003 | [7] 0.007 | [5] 0.009 | [8] -0.015 | vorinostat 0.107 | silmitasertib -0.029 | [6] -0.002 | entospletinib -0.005

APBA1 (UniProt Q02410)
inactive: nilotinib -0.058 | [1] -0.045 | [2] -0.015 | quisinostat -0.095 | tipifarnib 0.059 | [4] -0.054 | [7] -0.023 | [5] 0.035 | vorinostat -0.227 | silmitasertib 0.045 | [6] -0.076 | entospletinib -0.072

ARID2 (UniProt Q68CP9)
inactive: nilotinib 0.06 | [1] 0.009 | dasatinib -0.023 | [2] -0.039 | [3] 0.03 | quisinostat 0.035 | tipifarnib -0.028 | [4] -0.034 | [7] 0.017 | [8] 0.07 | [6] 0.025 | entospletinib -0.041

ARHGAP19 isoform 2 (UniProt Q14CB8)
inactive: nilotinib 0.073 | [1] 0.02 | dasatinib -0.023 | [2] 0.044 | [3] 0.069 | quisinostat -0.139 | tipifarnib -0.041 | [4] 0.01 | [5] 0.015 | [8] -0.021 | vorinostat -0.231 | silmitasertib -0.012 | [6] -0.101 | entospletinib 0.063

APH1A (UniProt Q96BI3)
inactive: nilotinib -0.006 | [1] -0.036 | [2] 0.069 | quisinostat 0.026 | tipifarnib 0.017 | [4] 0.015 | [7] -0.035 | [5] 0.019 | vorinostat 0.098 | silmitasertib -0.061 | [6] -0.017 | entospletinib 0.01

ARV1 (UniProt Q9H2C2)
inactive: nilotinib -0.181 | [1] 0.079 | dasatinib 0.001 | [2] 0.001 | [3] -0.043 | quisinostat 0.086 | tipifarnib -0.232 | [4] -0.084 | [7] 0.01 | [8] -0.096 | [6] -0.014 | entospletinib -0.051

ARIH1 (UniProt Q9Y4X5)
inactive: nilotinib 0.037 | [1] 0.03 | dasatinib -0.044 | [2] 0.018 | [3] -0.015 | quisinostat 0.038 | tipifarnib 0.007 | [4] -0.014 | [7] -0.017 | [5] 0.007 | [8] -0.008 | vorinostat 0.015 | silmitasertib 0.019 | [6] -0.02 | entospletinib 0.032

ARL8A (UniProt Q96BM9)
inactive: nilotinib 0.003 | [1] 0.049 | dasatinib 0.037 | [2] 0.091 | [3] -0.049 | quisinostat 0.17 | tipifarnib -0.203 | [4] 0.153 | [7] 0.247 | [5] -0.054 | [8] 0.192 | vorinostat 0.234 | silmitasertib -0.024 | [6] -0.03 | entospletinib 0.002

ARAP3 (UniProt Q8WWN8)
inactive: nilotinib 0.155 | [1] -0.049 | dasatinib -0.05 | [2] -0.005 | [3] 0.102 | tipifarnib 0.023 | [5] 0.027 | vorinostat -0.336 | silmitasertib 0.062 | entospletinib 0.09

ARL5A (UniProt Q9Y689)
inactive: nilotinib 0.235 | [1] -0.029 | dasatinib -0.109 | [2] -0.014 | [3] 0.074 | quisinostat 0.064 | tipifarnib -0.043 | [4] -0.146 | [7] 0 | [8] -0.119 | [6] 0.057 | entospletinib 0.112

ARID4A (UniProt P29374)
inactive: nilotinib -0.02 | [1] 0.063 | dasatinib -0.039 | [2] 0.028 | [3] -0.079 | tipifarnib -0.12 | [5] -0.028 | [8] -0.024 | vorinostat -0.049 | silmitasertib -0.032

2 records drawn at random from those above, as already listed:
ARAP3 (UniProt Q8WWN8)
inactive: nilotinib 0.155 | [1] -0.049 | dasatinib -0.05 | [2] -0.005 | [3] 0.102 | tipifarnib 0.023 | [5] 0.027 | vorinostat -0.336 | silmitasertib 0.062 | entospletinib 0.09

ARL5A (UniProt Q9Y689)
inactive: nilotinib 0.235 | [1] -0.029 | dasatinib -0.109 | [2] -0.014 | [3] 0.074 | quisinostat 0.064 | tipifarnib -0.043 | [4] -0.146 | [7] 0 | [8] -0.119 | [6] 0.057 | entospletinib 0.112

More results.

ARHGEF2 (UniProt V9GYF0)
inactive: nilotinib 0.029 | [1] -0.119 | dasatinib 0.02 | [2] -0.113 | [3] -0.139 | tipifarnib -0.23 | [7] 0.117 | [8] 0.157 | entospletinib 0.081

ARHGEF40 (UniProt Q8TER5)
inactive: nilotinib -0.164 | [1] 0.031 | dasatinib 0.004 | [2] -0.016 | [3] 0.086 | tipifarnib 0.06 | [7] 0.07 | [5] 0.086 | vorinostat -0.096 | silmitasertib -0.009
